According to the supplement of paper PMC6078165:
± gives the standard deviation of the averaged measurements. Values are relative to the signal before dosing, not to a vehicle control; the signal also falls without drug.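 Fibroblast labels name human fibroblasts: mostly primary ones from tissues such as uterus (C12385, HUF), lung (H6013), bone (Hs27A), adrenal (HADF) and skin (WS1), plus mammary HMF and breast cancer-associated Hs343T. The cancer cells are basal-like or mesenchymal-like triple-negative breast cancer lines. The paper calls a changed response a hit when it shifts by more than 3x the replicate standard deviation. The tissue of the other fibroblasts is not given here.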

Test system: MDAMB468
Experiment: relative JC-1 red fluorescence (viability) vs pre-drug, coculture with fibroblast (fraction); higher = more viable cancer cells
Protocol: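 JC-1 labelled TNBC cells cocultured 1:1 (1,500 cells each) with CellTrace Violet stained primary or stromal fibroblasts in 384-well plates in FluoroBrite medium, treated with one of 42 anticancer drugs at 0.1, 1, 10 or 100 uM. JC-1 red fluorescence (mitochondrial integrity in cancer cells only) was read by plate reader every 8 h for 72 h. Values are normalised to each well's pre-drug value. The stock of one drug was tenfold lower, so its dose labels may be too high.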

CCCCCOC(=O)Nc1nc(=O)n([C@@H]2O[C@H](C)[C@@H](O)[C@H]2O)cc1F [Capecitabine]
relative JC-1 red fluorescence
Settings | 8 h | 16 h | 24 h | 32 h | 40 h | 48 h | 56 h | 64 h | 72 h
0.1 µM, coculture fibroblast: C12385 | 0.854 ± 0.024 | 0.7901 ± 0.0073 | 0.731 ± 0.012 | 0.663 ± 0.027 | 0.601 ± 0.033 | 0.577 ± 0.036 | 0.538 ± 0.041 | 0.51 ± 0.039 | 0.488 ± 0.043
0.1 µM, coculture fibroblast: H6013 | 0.867 ± 0.037 | 0.876 ± 0.05 | 0.83 ± 0.044 | 0.82 ± 0.048 | 0.78 ± 0.036 | 0.784 ± 0.045 | 0.759 ± 0.048 | 0.745 ± 0.047 | 0.692 ± 0.052
0.1 µM, coculture fibroblast: H6019 | 0.841 ± 0.016 | 0.813 ± 0.014 | 0.787 ± 0.029 | 0.74 ± 0.027 | 0.698 ± 0.036 | 0.671 ± 0.049 | 0.627 ± 0.046 | 0.588 ± 0.057 | 0.559 ± 0.056
0.1 µM, coculture fibroblast: H6076 | 0.957 ± 0.048 | 0.924 ± 0.01 | 0.951 ± 0.026 | 0.902 ± 0.015 | 0.8219 ± 0.0035 | 0.791 ± 0.0085 | 0.747 ± 0.025 | 0.719 ± 0.03 | 0.735 ± 0.037
0.1 µM, coculture fibroblast: H6231 | 0.83682 ± 0.00049 | 0.824 ± 0.14 | 0.8799 ± 0.0083 | 0.849 ± 0.016 | 0.7912 ± 0.0046 | 0.75522 ± 0.00044 | 0.6964 ± 0.0044 | 0.6562 ± 0.0024 | 0.63281 ± 0.00044
0.1 µM, coculture fibroblast: HADF | 0.875 ± 0.026 | 0.8371 ± 0.0012 | 0.7809 ± 0.0037 | 0.76 ± 0.0071 | 0.71172 ± 0.00023 | 0.706 ± 0.0073 | 0.6633 ± 0.0056 | 0.644 ± 0.013 | 0.606 ± 0.02
0.1 µM, coculture fibroblast: HCFa | 0.856 ± 0.013 | 0.822 ± 0.022 | 0.753 ± 0.01 | 0.7214 ± 0.0013 | 0.6542 ± 0.0057 | 0.643 ± 0.012 | 0.597 ± 0.021 | 0.549 ± 0.026 | 0.512 ± 0.027
0.1 µM, coculture fibroblast: HCPF | 0.874 ± 0.014 | 0.909 ± 0.026 | 0.896 ± 0.052 | 0.864 ± 0.035 | 0.802 ± 0.053 | 0.767 ± 0.057 | 0.706 ± 0.052 | 0.694 ± 0.039 | 0.673 ± 0.03
0.1 µM, coculture fibroblast: HHSteC | 0.858 ± 0.037 | 0.808 ± 0.029 | 0.758 ± 0.022 | 0.709 ± 0.031 | 0.66 ± 0.037 | 0.654 ± 0.039 | 0.596 ± 0.036 | 0.565 ± 0.039 | 0.519 ± 0.033
0.1 µM, coculture fibroblast: HMF | 0.827 ± 0.0097 | 0.9872 ± 0.0064 | 0.911 ± 0.01 | 0.859 ± 0.016 | 0.815 ± 0.028 | 0.783 ± 0.021 | 0.729 ± 0.032 | 0.731 ± 0.038 | 0.723 ± 0.066
0.1 µM, coculture fibroblast: HPFa | 0.93 ± 0.025 | 0.871 ± 0.039 | 0.833 ± 0.037 | 0.783 ± 0.026 | 0.748 ± 0.018 | 0.739 ± 0.023 | 0.67 ± 0.028 | 0.631 ± 0.025 | 0.553 ± 0.018
0.1 µM, coculture fibroblast: HUF | 0.899 ± 0.0094 | 0.7942 ± 0.0071 | 0.72693 ± 0.00034 | 0.6626 ± 0.0033 | 0.611 ± 0.0079 | 0.581 ± 0.0081 | 0.539 ± 0.013 | 0.514 ± 0.011 | 0.487 ± 0.011
0.1 µM, coculture fibroblast: Hs5 | 0.768 ± 0.1 | 0.812 ± 0.17 | 0.9634 ± 0.0077 | 0.94 ± 0.024 | 0.855 ± 0.032 | 0.827 ± 0.038 | 0.773 ± 0.043 | 0.721 ± 0.052 | 0.729 ± 0.052
0.1 µM, coculture fibroblast: Hs27A | 0.8593 ± 0.008 | 0.813 ± 0.015 | 0.748 ± 0.015 | 0.731 ± 0.0092 | 0.659 ± 0.015 | 0.652 ± 0.025 | 0.606 ± 0.021 | 0.576 ± 0.027 | 0.542 ± 0.021
0.1 µM, coculture fibroblast: Hs343T | 0.877 ± 0.034 | 0.9529 ± 0.0062 | 0.8948 ± 0.00029 | 0.8507 ± 0.0045 | 0.7862 ± 0.0034 | 0.7497 ± 0.0014 | 0.6902 ± 0.0059 | 0.663 ± 0.013 | 0.635 ± 0.017
0.1 µM, coculture fibroblast: WS1 | 0.838 ± 0.035 | 0.766 ± 0.042 | 0.712 ± 0.051 | 0.653 ± 0.049 | 0.598 ± 0.055 | 0.564 ± 0.053 | 0.535 ± 0.058 | 0.507 ± 0.066 | 0.498 ± 0.07
1 µM, coculture fibroblast: C12385 | 0.894 ± 0.033 | 0.82 ± 0.016 | 0.772 ± 0.041 | 0.727 ± 0.053 | 0.691 ± 0.05 | 0.69 ± 0.059 | 0.649 ± 0.058 | 0.629 ± 0.063 | 0.624 ± 0.077
1 µM, coculture fibroblast: H6013 | 0.909 ± 0.021 | 0.852 ± 0.0088 | 0.812 ± 0.014 | 0.803 ± 0.013 | 0.782 ± 0.019 | 0.797 ± 0.028 | 0.775 ± 0.029 | 0.771 ± 0.033 | 0.715 ± 0.031
1 µM, coculture fibroblast: H6019 | 0.831 ± 0.041 | 0.796 ± 0.025 | 0.759 ± 0.023 | 0.699 ± 0.012 | 0.6514 ± 0.004 | 0.6373 ± 0.00098 | 0.59391 ± 0.00029 | 0.5683 ± 0.0047 | 0.5441 ± 0.0002
1 µM, coculture fibroblast: H6076 | 0.959 ± 0.021 | 0.937 ± 0.023 | 0.9055 ± 0.0043 | 0.911 ± 0.018 | 0.853 ± 0.0095 | 0.841 ± 0.023 | 0.8 ± 0.025 | 0.789 ± 0.033 | 0.836 ± 0.05
1 µM, coculture fibroblast: H6231 | 0.8482 ± 0.0079 | 0.885 ± 0.089 | 0.852 ± 0.029 | 0.829 ± 0.019 | 0.781 ± 0.015 | 0.74 ± 0.012 | 0.6867 ± 0.002 | 0.6578 ± 0.0023 | 0.6448 ± 0.0016
1 µM, coculture fibroblast: HADF | 0.942 ± 0.016 | 0.871 ± 0.011 | 0.83 ± 0.029 | 0.825 ± 0.032 | 0.8 ± 0.033 | 0.808 ± 0.048 | 0.77 ± 0.047 | 0.773 ± 0.049 | 0.726 ± 0.048
1 µM, coculture fibroblast: HCFa | 0.9095 ± 0.0061 | 0.843 ± 0.011 | 0.794 ± 0.017 | 0.762 ± 0.0095 | 0.7 ± 0.014 | 0.694 ± 0.029 | 0.639 ± 0.029 | 0.597 ± 0.035 | 0.537 ± 0.033
1 µM, coculture fibroblast: HCPF | 0.8858 ± 0.0033 | 0.937 ± 0.017 | 0.823 ± 0.037 | 0.807 ± 0.02 | 0.745 ± 0.035 | 0.715 ± 0.029 | 0.666 ± 0.025 | 0.648 ± 0.029 | 0.636 ± 0.0079
1 µM, coculture fibroblast: HHSteC | 0.9299 ± 0.0076 | 0.858 ± 0.018 | 0.812 ± 0.027 | 0.783 ± 0.03 | 0.739 ± 0.04 | 0.735 ± 0.04 | 0.677 ± 0.034 | 0.651 ± 0.029 | 0.594 ± 0.022
1 µM, coculture fibroblast: HMF | 0.873 ± 0.014 | 0.94 ± 0.013 | 0.864 ± 0.031 | 0.848 ± 0.04 | 0.781 ± 0.039 | 0.767 ± 0.05 | 0.727 ± 0.051 | 0.707 ± 0.043 | 0.697 ± 0.042
1 µM, coculture fibroblast: HPFa | 0.9376 ± 0.0047 | 0.8557 ± 0.006 | 0.825 ± 0.0095 | 0.765 ± 0.016 | 0.735 ± 0.0084 | 0.723 ± 0.01 | 0.66183 ± 4.6e-05 | 0.6372 ± 0.0034 | 0.5625 ± 0.00041
1 µM, coculture fibroblast: HUF | 0.934 ± 0.0099 | 0.861 ± 0.01 | 0.819 ± 0.045 | 0.783 ± 0.057 | 0.744 ± 0.071 | 0.736 ± 0.079 | 0.7 ± 0.083 | 0.696 ± 0.1 | 0.675 ± 0.12
1 µM, coculture fibroblast: Hs5 | 0.781 ± 0.1 | 0.9132 ± 0.0012 | 0.885 ± 0.024 | 0.859 ± 0.015 | 0.8 ± 0.034 | 0.781 ± 0.029 | 0.761 ± 0.029 | 0.735 ± 0.036 | 0.754 ± 0.034
1 µM, coculture fibroblast: Hs27A | 0.899 ± 0.026 | 0.862 ± 0.015 | 0.814 ± 0.042 | 0.821 ± 0.044 | 0.768 ± 0.059 | 0.762 ± 0.074 | 0.725 ± 0.08 | 0.703 ± 0.09 | 0.64 ± 0.071
1 µM, coculture fibroblast: Hs343T | 0.914 ± 0.038 | 0.983 ± 0.021 | 0.914 ± 0.054 | 0.876 ± 0.075 | 0.809 ± 0.074 | 0.786 ± 0.082 | 0.73 ± 0.077 | 0.703 ± 0.066 | 0.682 ± 0.069
1 µM, coculture fibroblast: WS1 | 0.915 ± 0.015 | 0.79 ± 0.024 | 0.744 ± 0.041 | 0.691 ± 0.055 | 0.652 ± 0.057 | 0.63 ± 0.064 | 0.615 ± 0.07 | 0.591 ± 0.075 | 0.588 ± 0.094
